The experiment relates to RAW 264.7. Kind of experiment: HMGB1-induced TNF-alpha production relative to HMGB1-stimulated control; higher = more TNF-alpha secretion (less inhibition). As to conditions: stimulus: HMGB1 5 ug/ml, 18 h.
Where [1] appears, read: compound concentration: 1 ug/ml.

The values that follow come from the supplement of paper PMC3682954.

Counter-ions that a name gives are not always drawn. ± gives the standard deviation of the averaged measurements. This is one part of the list. Repeats are few or missing, and single values can be far off.

As to `CCCCCC[C@@H]([C@@H](C)O)n1cnc2c(N)ncnc21` [erythro-9-(2-Hydroxy-3-nonyl)adenine hydrochloride], under “compound concentration: 3 uM”, the “HMGB1-induced TNF-alpha production” value was 86%. Same read-out and setting: as for `C[N+](C)(C)CCCCCC[N+](C)(C)C` [Hexamethonium dibromide dihydrate], the figure is 72.4%.

With `C[N+](C)(C)CCCCCC[N+](C)(C)C`, where the note is “compound concentration: 3 uM”, the “HMGB1-induced TNF-alpha production” value was found to be 76%.

Turning to `C[N+](C)(C)CCCCCC[N+](C)(C)C` [Hexamethonium bromide], the “HMGB1-induced TNF-alpha production” value (compound concentration: 3 uM) came out at 89.3%.

As to `C[N+](C)(C)CCCCCC[N+](C)(C)C` [Hexamethonium dichloride], under “compound concentration: 3 uM”, the “HMGB1-induced TNF-alpha production” value stood at 86%.

`CC1C(=O)OC2C(O)C34C5CC(C(C)(C)C)C36C(OC(=O)C6O)OC4(C(=O)O5)C12O` (stereo not given) [Ginkgolide B]: under setting [1], the “HMGB1-induced TNF-alpha production” value is 85.4%. Take `CCCCCCCCc1ccc(-c2ccc(C(=O)O)cc2)cc1`: where the note is “compound concentration: 3 uM”, the “HMGB1-induced TNF-alpha production” value amounted to 111%. Same read-out and setting: then `CC[N+](C)(C)Cc1ccccc1Br`, with 103%.

With `CC[N+](C)(C)Cc1ccccc1Br` [Bretylium tosylate], the “HMGB1-induced TNF-alpha production” value (compound concentration: 3 uM) was 103%. Turning to `CC1CC(OC(=O)C(O)c2ccccc2)CC(C)(C)C1` (stereo not given), the “HMGB1-induced TNF-alpha production” value (compound concentration: 3 uM) worked out at 95.7%. Still for that read-out and setting: as for `Cc1oncc1C(=O)Nc1ccc(C(F)(F)F)cc1` [Leflunomide], the figure is 100 ± 6.1%; as for `COc1ccc(C(Cl)=C(c2ccc(OC)cc2)c2ccc(OC)cc2)cc1` [Chlorotrianisene], 98.4%; as for `COc1ccc(C(Cl)=C(c2ccc(OC)cc2)c2ccc(OC)cc2)cc1`, 71.7%. Same read-out and setting: then `O=C(O)c1cccnc1Nc1cccc(C(F)(F)F)c1` [Niflumic acid], with 93.6 ± 22%; and `O=C(O)c1cccnc1Nc1cccc(C(F)(F)F)c1`, with 79.4%; and `Cc1cn(C2C=CC(CO)O2)c(=O)[nH]c1=O` (stereo not given) [2',3'-didehydro-3'-deoxythymidine], with 77.8%. The same measure, in the same setting: as for `CC(CCc1ccccc1)NCC(O)c1ccc(O)c(C(N)=O)c1` (stereo not given) [Labetalol hydrochloride], the figure is 78.5 ± 22%. For the compound `CC(CCc1ccccc1)NCC(O)c1ccc(O)c(C(N)=O)c1` (stereo not given), the “HMGB1-induced TNF-alpha production” value (compound concentration: 3 uM) was 75%. With `CCOC(=O)[C@H](CCc1ccccc1)N[C@@H](C)C(=O)N1Cc2ccccc2C[C@H]1C(=O)O`, the “HMGB1-induced TNF-alpha production” value (compound concentration: 3 uM) came to 95.1%. Same read-out and setting: as for `CCOC(=O)[C@H](CCc1ccccc1)N[C@@H](C)C(=O)N1Cc2ccccc2C[C@H]1C(=O)O` [Quinapril], the figure is 92.3%. The same measure, in the same setting: as for `CCOC(=O)[C@H](CCc1ccccc1)N[C@@H](C)C(=O)N1Cc2ccccc2C[C@H]1C(=O)O` [Quinapril HCl], the figure is 111%. Regarding `CN(C)CCCN1c2ccccc2Sc2ccccc21`, the “HMGB1-induced TNF-alpha production” value (compound concentration: 3 uM) came out at 70.3%.

As for `CN(C)CCCN1c2ccccc2Sc2ccccc21` [Promazine hydrochloride], for the setting “compound concentration: 3 uM”, the “HMGB1-induced TNF-alpha production” value was 106 ± 1.7%.

Consider `Cc1cc(C(C)(C)C)c(O)c(C)c1CC1=NCCN1` [Oxymetazoline hydrochloride], for which the “HMGB1-induced TNF-alpha production” value (compound concentration: 3 uM) came out at 90.1 ± 15%.

With `Cc1cc(C(C)(C)C)c(O)c(C)c1CC1=NCCN1`, the “HMGB1-induced TNF-alpha production” value (compound concentration: 3 uM) is 96.8%. On the same count and under the same terms, then `Cc1cc(C(C)(C)C)c(O)c(C)c1CC1=NCCN1` [Oxymetazoline], with 86.5%. Still for that read-out and setting: then `NS(=O)(=O)c1cc(C(=O)O)cc(N2CCCC2)c1Oc1ccccc1` [Piretanide], with 114%. As for `Nc1nc2c(ncn2[C@H]2C[C@H](O)[C@@H](CO)O2)c(=O)[nH]1` [2'-Deoxyguanosine hydrate], under setting [1], the “HMGB1-induced TNF-alpha production” value amounted to 75.7%. Same read-out and setting: then `COc1ccc([C@@H]2CC(=O)c3c(O)cc(O[C@@H]4O[C@H](CO[C@@H]5O[C@@H](C)[C@H](O)[C@@H](O)[C@H]5O)[C@@H](O)[C@H](O)[C@H]4O)cc3O2)cc1O` [Hesperidin, 80%], with 77.2%. For the compound `COc1ccc([C@@H]2CC(=O)c3c(O)cc(O[C@@H]4O[C@H](CO[C@@H]5O[C@@H](C)[C@H](O)[C@@H](O)[C@H]5O)[C@@H](O)[C@H](O)[C@H]4O)cc3O2)cc1O` [Hesperidin], the “HMGB1-induced TNF-alpha production” value (compound concentration: 3 uM) was determined as 67.8%. Take `CC(C)(C(=O)O)c1ccc(C(O)CCCN2CCC(C(O)(c3ccccc3)c3ccccc3)CC2)cc1` (stereo not given) [Fexofenadine hydrochloride]: the “HMGB1-induced TNF-alpha production” value (compound concentration: 3 uM) is 81.7%. On the same count and under the same terms, as for `CC(C)(C(=O)O)c1ccc(C(O)CCCN2CCC(C(O)(c3ccccc3)c3ccccc3)CC2)cc1` (stereo not given) [Fexofenadine HCl], the figure is 125%. For the compound `CC(C)(C(=O)O)c1ccc(C(O)CCCN2CCC(C(O)(c3ccccc3)c3ccccc3)CC2)cc1` (stereo not given), the “HMGB1-induced TNF-alpha production” value (compound concentration: 3 uM) turned out to be 74.5%. The same measure, in the same setting: as for `CC(N)=NCCCC[C@H](N)C(=O)O` [L-N6-(1-Iminoethyl)lysine hydrochloride], the figure is 106%; as for `Cc1ccc(O)c(N=Nc2ccccc2)n1`, 113%; as for `Cc1c(C)c2c(c(C)c1O)CCC(C)(COc1ccc(CC3SC(=O)NC3=O)cc1)O2` (stereo not given) [Troglitazone], 82.4 ± 3.3%. On the same count and under the same terms, then `C[N+]1(C)[C@@H]2CC[C@H]1C[C@@H](OC(=O)C(O)c1ccccc1)C2` (stereo not given in full), with 106%. Same read-out and setting: as for `COC(c1ccccc1)(c1ccccc1)[C@H](Oc1nc(C)cc(C)n1)C(=O)O` [Ambrisentan], the figure is 92.7%; as for `COC(=O)C1=C(C)NC(C)=C(C(=O)OCCN2CCN(C(c3ccccc3)c3ccccc3)CC2)C1c1cccc([N+](=O)[O-])c1` (stereo not given) [Manidipine], 91.3%. Regarding `COc1ccc2c(c1OC)C(=O)OC2C1c2c(cc3c(c2OC)OCO3)CCN1C` [(S,R)-Noscapine], the “HMGB1-induced TNF-alpha production” value under setting [1] was 80.5%.
